{"source": "PubChem BioAssay AID493014", "about": "(National Center for Advancing Translational Sciences (NCATS), 2011)", "note": "About 170 (0.05%) of roughly 340,000 compounds were called active. Inconclusive means that the source gave no clear call. Such entries were picked first, then a sample of the others. Calls come from the whole dose curve; as a rule, active = well fitted inhibition curve with a large enough effect in the signal ratio, with a control signal flat (not every such curve was filed as active); inconclusive = small, poorly fitted or top-dose-only effect, or effect the other way, or a change in a side signal; inactive = flat fitted curve, though single readings scatter; the % refers to the signal ratio. A potency beside an inconclusive call is a rough fit, not a confirmed value. Potency is the fitted concentration of half-maximal effect.", "data": [{"assay": "qHTS Assay to Find Inhibitors of Chronic Active B-Cell Receptor Signaling;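 for activity change, negative = inhibition: plate controls were basal doxycycline-induced cells for no effect and cells given 10 µM MG132 for full effect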", "settings": "ABC-DLBCL IkBa-CBG/CBR reporter, luminescence ratio (green luciferase fused to IkBa over red control in TMD8 lymphoma cells), 4 h; activity change, negative = inhibition: at 46.1 µM (top of the series) unless noted", "how_it_was_run": "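Cell line TMD8 (human ABC DLBCL), stably expressing tet-inducible CBG68-IkBa fusion and CBR; IMDM/0.5% FBS; cpd up to 46 uM; dox induction, 4 h, 37C/5% CO2; dual luminescence; green/red ratio; MG132 control.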", "values": [{"smiles": "COc1ccc(C2=NS(=O)(=O)N(C)C(C(=O)N3CCCCC3)=C2)cc1OC", "activity change, negative = inhibition": "inconclusive: 20.9%"}, {"smiles": "COc1cccc(C(=O)Nc2cccc(-c3ccc(N4CCOCC4)nn3)c2)c1OC", "activity change, negative = inhibition": "inconclusive: 1.55%"}, {"smiles": "CCn1cc(/C=C(\\NC(=O)c2ccc(C)cc2)C(=O)NCCCN2CCOCC2)c2ccccc21", "activity change, negative = inhibition": "inactive: 3.85%"}, {"smiles": "Cc1cc(C(=O)NC2CCCc3c2cnn3-c2cccc(C)c2C)c(C)o1", "note": "(stereo not drawn)", "Potency": "inconclusive: 22.4 µM [falling, partial curve, poor fit]"}, {"smiles": "COc1ccc(N2CC(NC(=O)c3cc4ccccc4o3)CC2=O)cc1OC", "note": "(stereo not drawn)", "Potency": "inconclusive: 5.62 µM [falling, partial curve, poor fit]"}, {"smiles": "CCc1cccc(NS(=O)(=O)c2c(C)nc3sc(CC)nn3c2=O)c1", "activity change, negative = inhibition": "inconclusive: 16.5%"}, {"smiles": "CCOc1ccc(NC(=O)CCC(=O)NNC(=O)Nc2ccc(Cl)cc2)cc1", "activity change, negative = inhibition": "inconclusive: 5.11%"}, {"smiles": "COc1ccc(S(=O)(=O)Cc2ccc(C(=O)N3CCN(c4cccc(C)c4)C(C)C3)o2)cc1", "note": "(stereo not drawn)", "activity change, negative = inhibition": "inconclusive: -24.3%"}, {"smiles": "COCc1cc(=O)[nH]c(/N=C(\\N)Nc2c(F)cccc2F)n1", "activity change, negative = inhibition": "inactive: -11.3%"}, {"smiles": "CC(=O)c1ccc(NC(=O)c2sc3nc(N4CCOCC4)c4c(c3c2N)CCCC4)cc1", "activity change, negative = inhibition": "inactive: 4.68%"}, {"smiles": "Cc1ccccc1CN(C)CCc1ccccn1", "activity change, negative = inhibition": "inactive: -1.68%"}, {"smiles": "CCOc1ccc(N2C(=O)CC(Sc3n[nH]c(-c4ccccc4)n3)C2=O)cc1", "note": "(stereo not drawn)", "activity change, negative = inhibition": "inactive: 0.686%"}, {"smiles": "CC[C@H]1C(c2ccc(F)cc2)=NN(c2ccccc2)[C@@H]1CO", "Potency": "inconclusive: 23.1 µM [falling, single point]"}, {"smiles": "COCCSc1ccccc1C(=O)N1CCOCC1", "activity change, negative = inhibition": "inconclusive: 5.86%"}, {"smiles": "COc1ccccc1CNC(=O)COC(=O)[C@H](Cc1c[nH]c2ccccc12)NC(=O)c1cccs1", "Potency": "inconclusive: 29.1 µM [falling, single point]"}, {"smiles": "Cc1ccc(C2=NS(=O)(=O)N(C)C(C(=O)NCc3ccc(F)cc3)=C2)cc1", "activity change, negative = inhibition": "inconclusive: -1.17%"}, {"smiles": "COC(=O)c1ccc(NC(=O)Nc2ccc(OC)cc2)cc1", "activity change, negative = inhibition": "inconclusive: -1.8%"}, {"smiles": "O=C(/C=C/c1cn(-c2ccccc2)nc1-c1ccc2c(c1)OCCO2)NCCO", "Potency": "inconclusive: 14.1 µM [falling, partial curve]"}, {"smiles": "COc1ccc(C(=O)c2coc3ccc(O)c(CN4CCOCC4)c23)cc1", "activity change, negative = inhibition": "inactive: -15.7%"}, {"smiles": "CCOc1cc(/C=C/C(=O)c2ccc(C)cc2)ccc1OCC(=O)N(C)C", "activity change, negative = inhibition": "inconclusive: -17.1%"}, {"smiles": "Cc1nnc(SCC(=O)Nc2ccc([N+](=O)[O-])cc2)n1CC1CCCO1", "note": "(stereo not drawn)", "activity change, negative = inhibition": "inactive: -0.112%"}, {"smiles": "CC(C)C(=O)Nc1ccc(NC(=O)c2ccccn2)cn1", "activity change, negative = inhibition": "inconclusive: -21.4%"}, {"smiles": "CCOc1ccc2nc(N3C(=O)CNC3=S)sc2c1", "activity change, negative = inhibition": "inconclusive: -13.7%"}, {"smiles": "Cc1c(C(=O)NCCN2CCOCC2)oc2ccc(S(=O)(=O)N3CCCCCC3)cc12", "activity change, negative = inhibition": "inactive: 4%"}, {"smiles": "CC1(C)Cc2nc(Cl)c(C(N)=O)cc2CO1", "activity change, negative = inhibition": "inactive: -0.24%"}, {"smiles": "COCCN(C(=O)c1ccco1)c1nc(-c2ccccc2)cs1", "activity change, negative = inhibition": "inconclusive: 0.666%"}, {"smiles": "Cc1ccc(C)c(CSc2nnc(CCN)o2)c1", "activity change, negative = inhibition": "inconclusive: 1.14%"}, {"smiles": "O=C1N=c2ccccc2=C1c1[nH]c(=S)[nH]c1O", "activity change, negative = inhibition": "inconclusive: -7.04%"}, {"smiles": "CCN(CC(=O)Nc1sc2c(c1C#N)CCC(C)C2)Cc1nc2ccccc2c(=O)[nH]1", "note": "(stereo not drawn)", "activity change, negative = inhibition": "inconclusive: 0.415%"}, {"smiles": "COC(=O)c1ccccc1NC(=O)C1CCCO1", "note": "(stereo not drawn)", "activity change, negative = inhibition": "inconclusive: -0.288%"}, {"smiles": "Cn1nnc2c(NCc3ccccc3Cl)ncnc21", "Potency": "inconclusive: 11.2 µM [falling, single point]"}, {"smiles": "COc1ccccc1-n1cnc2cc(NS(=O)(=O)c3ccccc3)ccc21", "activity change, negative = inhibition": "inconclusive: -20.9%"}, {"smiles": "Cc1cc(OCc2cc(C(=O)N3CCN(CC4CC4)CC3)no2)cc(C)c1Cl", "Potency": "inconclusive: 17.8 µM [falling, partial curve, poor fit]"}, {"smiles": "COc1ccc(C)cc1NC(=O)C(OC(=O)c1ccc(Cl)c(S(=O)(=O)N(C)c2ccccc2)c1)c1ccccc1", "note": "(stereo not drawn)", "Potency": "inconclusive: 29.1 µM [rising, single point]"}, {"smiles": "Cc1ccc(C2CC(=O)Oc3cc(C)c(Br)c(C)c32)cc1", "note": "(stereo not drawn)", "activity change, negative = inhibition": "inconclusive: 11.2%"}, {"smiles": "COc1cccc(NC(=O)c2ccc(S(=O)(=O)N(C)C)cc2)c1", "activity change, negative = inhibition": "inconclusive: 6.7%"}, {"smiles": "C=CCn1c(SC(F)F)nc2scc(-c3ccco3)c2c1=O", "Potency": "inconclusive: 12.6 µM [falling, partial curve]"}, {"smiles": "CCCNC(=O)Cn1cnc2sc(C(=O)Nc3cc(OC)c(OC)c(OC)c3)c(C)c2c1=O", "activity change, negative = inhibition": "inactive: 1.06%"}, {"smiles": "CC(NC(=O)c1nn(C)c2c1CS(=O)(=O)c1ccccc1-2)c1ccccc1", "note": "(stereo not drawn)", "activity change, negative = inhibition": "inconclusive: 4.34%"}, {"smiles": "O=C(NCc1ccc(Cl)cc1)C(=O)NCC1OCCN1C(=O)c1cccs1", "note": "(stereo not drawn)", "activity change, negative = inhibition": "inconclusive: -1.92%"}, {"smiles": "CS(=O)(=O)c1ncc(Cl)c(C(=O)Nc2ccc(N3CCOCC3)cc2)n1", "activity change, negative = inhibition": "inconclusive: 23.1%"}, {"smiles": "CCC1=Nc2cc(C(=O)NCCN3CCCC3)ccc2Sc2ccccc21", "activity change, negative = inhibition": "inactive: 1.54%"}, {"smiles": "O=C(COc1ccc(Cl)cc1)NCCSc1ccccc1", "activity change, negative = inhibition": "inconclusive: 26.7%"}, {"smiles": "CCc1nnc(NC(=O)/C=C/c2ccco2)s1", "Potency": "inconclusive: 29.1 µM [falling, single point]"}, {"smiles": "Cc1ccc(N2C(=O)C(c3c(C)[nH]n(-c4ccccc4)c3=O)(C(F)(F)F)C3=C2CC(C)(C)CC3=O)cc1", "note": "(stereo not drawn)", "activity change, negative = inhibition": "inactive: -1.23%"}, {"smiles": "COc1ccccc1NS(=O)(=O)c1cc(NC(=O)c2cccc(S(=O)(=O)N(C)C)c2)ccc1N1CCOCC1", "activity change, negative = inhibition": "inconclusive: 16.8%"}, {"smiles": "COC(=O)c1cccc(Oc2cccc(Cl)n2)c1", "activity change, negative = inhibition": "inconclusive: -15%"}, {"smiles": "CN(CC(=O)NC1CCCCC1)S(=O)(=O)c1cccc2nsnc12", "activity change, negative = inhibition": "inconclusive: 11.4%"}, {"smiles": "O=C(O)C1CCC(CNS(=O)(=O)c2ccccc2)CC1", "note": "(stereo not drawn)", "activity change, negative = inhibition": "inconclusive: -2.36%"}, {"smiles": "COc1cc(/C=N/Nc2cc(C)nc(N)n2)ccc1O", "activity change, negative = inhibition": "inactive: -7.59%"}, {"smiles": "CSc1ncccc1-c1nc2ccccc2[nH]1", "Potency": "inconclusive: 11.6 µM [rising, partial curve, poor fit]"}, {"smiles": "COc1cc(NC(=O)c2ccc(Br)o2)c(C(=O)O)cc1OC", "activity change, negative = inhibition": "inactive: 1.27%"}, {"smiles": "CCOC(=O)c1c(NC(=O)CSc2nc3ccc(OC)cc3[nH]2)sc2c1CC(C)(C)NC2(C)C", "activity change, negative = inhibition": "inactive: -4.78%"}]}]}
